Data source: PubChem BioAssay AID1508588 (Peter MacCallum Cancer Centre, 2020)

- Purpose: 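Genome-wide search for knock-downs that heighten vemurafenib action in melanoma cells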 (primary screen)
- Cell system: human WM266.4 melanoma cells (BRAF V600 mutant)
- Reagent: siRNA pool against human genes, 40 nM
- Timing: 96 h from transfection to read-out
- Challenge: vemurafenib 300 nM (about IC25), added 48 h after transfection, for 48 h; comparison arm got DMSO vehicle only
- Read-out: 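Ratios to non-targeting siRNA for cell gain, counted as DAPI nuclei after minus before drug and averaged over two replicates, and for absorbance-read medium lactate per cell; both binned into fold-change classes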
- Reading the numbers: cell gain with vemurafenib: higher = more cell gain than with non-targeting siRNA; lactate per cell with vemurafenib: higher = more lactate made per cell
- Call rule: 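Enhancement is called by pairing each knock-down's vehicle-arm and drug-arm fold-change classes for viability or glycolysis; which class combinations qualify is not given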
- Meaning of the calls: active = enhances vemurafenib effect; inactive = no enhancement seen
Shown is an unselected part of about 18,000 reagents. In the full data, 790 (4.4%) are marked active. 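Calls rest on a combination of fold-change classes in drug and vehicle arms, not all shown here.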 A number with no mark means an inactive call.

gene knocked down | cell gain with vemurafenib | lactate per cell with vemurafenib
RTL10 | -0.1 | 1.18
IREB2 | 0.46 | 0.82
COX7B | 0.64 | 1.25
LGALS3BP | 0.32 | 1
PDE6H | 0.45 | 1.81
AK1 | 0.4 | 0.97
GOSR2 | 0.34 | 0.77
CCNG2 | 0.6 | 1.04
ANGPTL2 | 0.6 | 1.34
ABCB10 | 0.38 | 1.2
OTOS | 0.85 | 0.9
FNTA | 0.53 | 1.87
SPG11 | 0.41 | 1.14
C8orf82 | 0.84 | 0.86
MRPS23 | 0.47 | 1.22
TAF5L | 0.71 | 1.4
H2AB1 | 1.07 | 1.22
RCOR1 | 0.94 (active) | 0.18
APBB1IP | 0.37 | 1.6
SLFN11 | 0.76 | 0.64
RPLP0 | -0.12 | 2.38
BICD1 | 0.96 | 1.05
PRRX2 | 1.01 | 0.82
SNX6 | 0.36 | 0.2
SRGAP1 | 0.55 | 1.13
ZFHX2 | 0.7 (active) | 0.44
TAFA3 | 1.19 | 0.4
RAB8A | 0.51 | 0.97
KRT75 | 1.08 | 0.93
SLC5A11 | 0.93 | 0.86
TCHP | 0.93 | 0.93
LINC00173 | 0.41 | 0.62
MCM3 | 0.04 | 1
CALML3 | 0.69 | 1.64

Individual results from the list:
Result for IREB2 under “cell gain with vemurafenib”: 0.46
MCM3, cell gain with vemurafenib → 0.04
Result of TAFA3 under “lactate per cell with vemurafenib”: 0.4
